{"source": "patent US20200002710A1", "about": "“SYSTEMS AND METHODS FOR CONTROL OF GENE EXPRESSION” (TRUSTEES OF BOSTON UNIVERSITY, published 2020)", "test_system": "T1, 43-8 low affinity yeast synTF (artificial)", "T1 sequence (limits assumed)": "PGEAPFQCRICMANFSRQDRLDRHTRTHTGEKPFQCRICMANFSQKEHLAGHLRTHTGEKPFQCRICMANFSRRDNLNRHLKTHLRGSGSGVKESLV", "assay": "activity in cells", "conditions": "yeast GFP reporter activation, enhanced by clamp; protein in cells; protein details: 3xFLAG, SV40 NLS, VP16, C-terminal PDZ ligand", "note": "Where a protein sequence is shown, tags need not be part of it."}
{"sequence": "GAATTCAGAGTGAGGACTCGAGAGTGAGGACGGATCCCAGATCCGCCAGGCGTGTATATATAGCGTGGATGGCCAGGCAACTTTAGTGCTGACACATACAGGCATATATATATGTGTGCGACGACACATGATCATATGGCATGCATGTGCTCTGTATGTATATAAAACTCTTGTTTTCTTCTTTTCTCTAAATATTCTTTCCTTATACATTAGGACCTTTGCAGCATAAATTACTATACTTCTATAGACACACAAACACAAATACACACACTAATCTAGATATTAAAATG (double strand) [(43-8 DBM)miniCyc1 promoter]", "values": [{"measurement": "activity on this sequence", "result": "active"}]}
